Record: PubChem BioAssay AID686938 (Drosophila RNAi Screening Center, 2013)

- Assay: 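Fly genes required for calcium entry once internal stores are emptied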 (primary screen)
- Cell system: Drosophila S2R+ cells
- Reagent: long dsRNA against Drosophila genes, about 0.25 µg dsRNA per well, roughly 10,000 cells
- Time to read-out: 5 days of knock-down before the calcium assay
- Challenge: thapsigargin (SERCA pump blocker) to empty calcium stores; entry signal taken 4 min after adding it
- Detection: 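Per-well fluo-4 fluorescence in two replicates, unnormalised, measured in resting cells and 4 min after store depletion by the SERCA blocker thapsigargin; ratio of the two present in few wells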
- Scale: calcium entry signal: higher = stronger calcium signal after store depletion; resting calcium signal: higher = higher resting calcium signal
- Rule for the call: 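Hit if the duplicate-averaged plate z-score for entry over resting signal is under −3; wells with weak total dye signal (Fmax z < −2) or more than 5 off-targets removed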
- Meaning of the calls: active = strongly reduced calcium entry; inactive = no strong reduction
The screen tested about 23,000 reagents; this is a random part of those that have a named target and a result. Over the whole deposit, 75 (0.33%) got an active call. 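Raw plate signals without normalisation; calls rest on plate z-scores that were not deposited; ratio present for only 364 wells.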 A number with no mark means an inactive call. Not given: the dose of the treatment.

calcium entry signal, replicate 1 (fluorescence units) | calcium entry signal, replicate 2 (fluorescence units) | resting calcium signal, replicate 1 (fluorescence units) | resting calcium signal, replicate 2 (fluorescence units) | target gene | dsRNA
4.62e7 | – | 2.34e7 | – | Agpat2 | DRSC03532
4.30e7 | 5.10e7 | 2.15e7 | 2.27e7 | inaD | DRSC04694
3.49e7 | 4.60e7 | 1.61e7 | 3.06e7 | 5-HT2A | DRSC11990
3.22e7 | 2.57e7 | 1.52e7 | 1.23e7 | CG30377 | DRSC06477
4.58e7 | 3.52e7 | 2.05e7 | 1.57e7 | CG30377 | DRSC06799
5.08e7 | 4.21e7 | 2.56e7 | 1.97e7 | Camta | DRSC06440
4.07e7 | 2.81e7 | 2.49e7 | 1.78e7 | Camta | DRSC06441
3.51e7 | 2.88e7 | 1.44e7 | 1.33e7 | Camta | DRSC07272
4.35e7 | 2.78e7 | 2.41e7 | 1.35e7 | Camta | DRSC23081
2.97e7 | 3.97e7 | 1.48e7 | 1.81e7 | Camta | DRSC23156
3.35e7 | 3.81e7 | 1.69e7 | 1.76e7 | Klf15 | DRSC17742
1.10e7 | 1.08e7 | 8.38e6 | 7.50e6 | RpL14 | DRSC11269
3.89e7 | 3.92e7 | 5.73e7 | 1.69e7 | bard | DRSC14796
2.27e7 | 3.40e7 | 1.14e7 | 2.21e7 | CG9701 | DRSC11093
4.74e7 | 3.35e7 | 2.27e7 | 1.75e7 | Os-C | DRSC16778
3.21e7 | 4.54e7 | 1.81e7 | 1.93e7 | CG31871 | DRSC02567
3.56e7 | 4.19e7 | 1.88e7 | 1.85e7 | CG31871 | DRSC02571
2.61e7 | 2.63e7 | 1.28e7 | 1.14e7 | alpha-Man-IIb | DRSC16898
2.59e7 | 4.35e7 | 1.22e7 | 1.83e7 | CG34029 | DRSC03909
4.35e7 | 4.27e7 | 1.81e7 | 2.12e7 | CG30105 | DRSC05668
2.50e7 | 2.95e7 | 1.45e7 | 1.42e7 | CG11367 | DRSC22434
4.21e7 | 6.19e7 | 2.06e7 | 2.82e7 | CG5758 | DRSC02889
4.59e7 | 3.69e7 | 2.02e7 | 1.57e7 | CG5758 | DRSC02890
2.88e7 | 5.04e7 | 1.45e7 | 2.31e7 | betaTub65B | DRSC11393

3 consecutive reagents already listed, for reference:
calcium entry signal, replicate 1 (fluorescence units) | calcium entry signal, replicate 2 (fluorescence units) | resting calcium signal, replicate 1 (fluorescence units) | resting calcium signal, replicate 2 (fluorescence units) | target gene | dsRNA
2.61e7 | 2.63e7 | 1.28e7 | 1.14e7 | alpha-Man-IIb | DRSC16898
2.59e7 | 4.35e7 | 1.22e7 | 1.83e7 | CG34029 | DRSC03909
4.35e7 | 4.27e7 | 1.81e7 | 2.12e7 | CG30105 | DRSC05668
